Results taken from the supplement of paper PMC10849652.
Some of the results follow.

The chains behind the UniProt entries cited, without tags or fusion partners. Where a name states a change or a piece, a line headed by the entry shows the natural chain unless it says otherwise.
UniProt Q9NRM2: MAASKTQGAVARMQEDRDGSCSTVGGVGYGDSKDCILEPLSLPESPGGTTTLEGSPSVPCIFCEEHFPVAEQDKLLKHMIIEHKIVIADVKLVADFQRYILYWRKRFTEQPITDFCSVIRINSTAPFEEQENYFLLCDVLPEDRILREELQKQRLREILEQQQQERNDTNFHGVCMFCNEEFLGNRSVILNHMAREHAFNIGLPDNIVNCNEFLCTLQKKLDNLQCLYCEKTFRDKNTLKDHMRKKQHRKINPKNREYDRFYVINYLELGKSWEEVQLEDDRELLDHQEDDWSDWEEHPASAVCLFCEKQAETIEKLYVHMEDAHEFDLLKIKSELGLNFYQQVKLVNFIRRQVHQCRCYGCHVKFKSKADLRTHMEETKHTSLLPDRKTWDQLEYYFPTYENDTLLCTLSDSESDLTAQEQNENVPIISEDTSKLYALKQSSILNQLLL
UniProt Q9UL40: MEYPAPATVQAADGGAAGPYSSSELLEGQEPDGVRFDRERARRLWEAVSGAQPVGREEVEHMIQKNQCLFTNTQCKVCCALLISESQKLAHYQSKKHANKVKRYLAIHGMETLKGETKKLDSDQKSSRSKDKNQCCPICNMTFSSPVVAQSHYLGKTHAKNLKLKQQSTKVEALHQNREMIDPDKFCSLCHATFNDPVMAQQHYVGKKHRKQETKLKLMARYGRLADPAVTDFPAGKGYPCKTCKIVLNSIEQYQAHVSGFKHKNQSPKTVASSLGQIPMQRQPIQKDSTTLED
UniProt Q8TF68: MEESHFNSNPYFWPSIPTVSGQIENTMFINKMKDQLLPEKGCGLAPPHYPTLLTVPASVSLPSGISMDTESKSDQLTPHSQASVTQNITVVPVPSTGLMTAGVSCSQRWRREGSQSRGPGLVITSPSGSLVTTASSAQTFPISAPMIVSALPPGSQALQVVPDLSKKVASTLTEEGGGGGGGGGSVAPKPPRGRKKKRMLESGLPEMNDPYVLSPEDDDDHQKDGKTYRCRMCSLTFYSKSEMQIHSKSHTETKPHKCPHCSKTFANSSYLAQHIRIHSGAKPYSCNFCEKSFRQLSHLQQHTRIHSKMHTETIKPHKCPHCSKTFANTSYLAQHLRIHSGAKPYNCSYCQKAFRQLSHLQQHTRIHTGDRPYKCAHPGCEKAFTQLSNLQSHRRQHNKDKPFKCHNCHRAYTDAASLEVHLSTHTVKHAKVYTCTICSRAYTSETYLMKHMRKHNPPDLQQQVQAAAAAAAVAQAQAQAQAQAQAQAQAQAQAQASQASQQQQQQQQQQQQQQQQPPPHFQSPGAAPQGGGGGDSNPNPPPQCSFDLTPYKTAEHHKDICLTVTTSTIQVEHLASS
UniProt Q96PM9: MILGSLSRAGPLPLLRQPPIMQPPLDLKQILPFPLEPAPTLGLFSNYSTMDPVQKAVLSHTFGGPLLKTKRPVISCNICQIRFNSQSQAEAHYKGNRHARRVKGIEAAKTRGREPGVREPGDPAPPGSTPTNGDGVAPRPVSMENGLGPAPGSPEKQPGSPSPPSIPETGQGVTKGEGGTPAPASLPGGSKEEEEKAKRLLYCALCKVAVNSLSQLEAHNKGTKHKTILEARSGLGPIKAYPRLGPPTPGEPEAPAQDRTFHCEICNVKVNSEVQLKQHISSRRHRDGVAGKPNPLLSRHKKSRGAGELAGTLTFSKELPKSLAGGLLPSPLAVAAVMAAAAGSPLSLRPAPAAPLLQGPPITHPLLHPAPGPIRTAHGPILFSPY
UniProt A6NFI3: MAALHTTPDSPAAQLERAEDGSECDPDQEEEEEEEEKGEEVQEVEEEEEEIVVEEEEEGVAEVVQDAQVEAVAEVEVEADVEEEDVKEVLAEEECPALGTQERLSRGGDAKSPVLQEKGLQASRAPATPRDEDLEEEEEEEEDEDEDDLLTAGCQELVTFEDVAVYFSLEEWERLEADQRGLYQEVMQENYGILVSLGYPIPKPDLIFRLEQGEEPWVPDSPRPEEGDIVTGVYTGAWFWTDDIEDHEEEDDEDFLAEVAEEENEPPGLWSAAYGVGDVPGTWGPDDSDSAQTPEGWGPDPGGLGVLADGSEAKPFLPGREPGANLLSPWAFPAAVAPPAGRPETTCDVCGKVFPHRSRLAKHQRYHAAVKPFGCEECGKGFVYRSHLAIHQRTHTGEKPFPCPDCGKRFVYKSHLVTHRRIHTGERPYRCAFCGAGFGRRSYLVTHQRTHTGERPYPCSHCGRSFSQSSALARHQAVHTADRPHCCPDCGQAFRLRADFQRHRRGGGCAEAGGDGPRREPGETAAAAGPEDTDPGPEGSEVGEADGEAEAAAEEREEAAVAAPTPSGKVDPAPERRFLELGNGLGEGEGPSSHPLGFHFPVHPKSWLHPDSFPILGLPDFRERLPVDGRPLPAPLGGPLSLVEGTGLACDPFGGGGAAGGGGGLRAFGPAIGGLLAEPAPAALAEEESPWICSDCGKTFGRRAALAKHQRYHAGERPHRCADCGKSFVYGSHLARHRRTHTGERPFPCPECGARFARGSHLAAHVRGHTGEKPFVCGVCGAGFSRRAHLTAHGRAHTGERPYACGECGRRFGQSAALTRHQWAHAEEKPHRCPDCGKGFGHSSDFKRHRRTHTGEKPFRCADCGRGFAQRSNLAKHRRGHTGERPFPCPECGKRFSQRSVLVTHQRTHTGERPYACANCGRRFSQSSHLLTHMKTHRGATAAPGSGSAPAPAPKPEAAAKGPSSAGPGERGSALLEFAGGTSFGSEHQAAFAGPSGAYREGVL
UniProt Q96IQ9: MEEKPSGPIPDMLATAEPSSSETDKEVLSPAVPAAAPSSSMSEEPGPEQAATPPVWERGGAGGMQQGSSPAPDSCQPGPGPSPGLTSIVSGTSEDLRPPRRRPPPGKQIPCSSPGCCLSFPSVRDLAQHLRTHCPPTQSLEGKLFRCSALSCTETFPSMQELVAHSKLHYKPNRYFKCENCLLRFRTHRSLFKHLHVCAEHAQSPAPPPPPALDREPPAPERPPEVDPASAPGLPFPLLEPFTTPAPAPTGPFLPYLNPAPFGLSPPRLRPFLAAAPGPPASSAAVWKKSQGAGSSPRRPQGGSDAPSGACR
UniProt Q5VUA4: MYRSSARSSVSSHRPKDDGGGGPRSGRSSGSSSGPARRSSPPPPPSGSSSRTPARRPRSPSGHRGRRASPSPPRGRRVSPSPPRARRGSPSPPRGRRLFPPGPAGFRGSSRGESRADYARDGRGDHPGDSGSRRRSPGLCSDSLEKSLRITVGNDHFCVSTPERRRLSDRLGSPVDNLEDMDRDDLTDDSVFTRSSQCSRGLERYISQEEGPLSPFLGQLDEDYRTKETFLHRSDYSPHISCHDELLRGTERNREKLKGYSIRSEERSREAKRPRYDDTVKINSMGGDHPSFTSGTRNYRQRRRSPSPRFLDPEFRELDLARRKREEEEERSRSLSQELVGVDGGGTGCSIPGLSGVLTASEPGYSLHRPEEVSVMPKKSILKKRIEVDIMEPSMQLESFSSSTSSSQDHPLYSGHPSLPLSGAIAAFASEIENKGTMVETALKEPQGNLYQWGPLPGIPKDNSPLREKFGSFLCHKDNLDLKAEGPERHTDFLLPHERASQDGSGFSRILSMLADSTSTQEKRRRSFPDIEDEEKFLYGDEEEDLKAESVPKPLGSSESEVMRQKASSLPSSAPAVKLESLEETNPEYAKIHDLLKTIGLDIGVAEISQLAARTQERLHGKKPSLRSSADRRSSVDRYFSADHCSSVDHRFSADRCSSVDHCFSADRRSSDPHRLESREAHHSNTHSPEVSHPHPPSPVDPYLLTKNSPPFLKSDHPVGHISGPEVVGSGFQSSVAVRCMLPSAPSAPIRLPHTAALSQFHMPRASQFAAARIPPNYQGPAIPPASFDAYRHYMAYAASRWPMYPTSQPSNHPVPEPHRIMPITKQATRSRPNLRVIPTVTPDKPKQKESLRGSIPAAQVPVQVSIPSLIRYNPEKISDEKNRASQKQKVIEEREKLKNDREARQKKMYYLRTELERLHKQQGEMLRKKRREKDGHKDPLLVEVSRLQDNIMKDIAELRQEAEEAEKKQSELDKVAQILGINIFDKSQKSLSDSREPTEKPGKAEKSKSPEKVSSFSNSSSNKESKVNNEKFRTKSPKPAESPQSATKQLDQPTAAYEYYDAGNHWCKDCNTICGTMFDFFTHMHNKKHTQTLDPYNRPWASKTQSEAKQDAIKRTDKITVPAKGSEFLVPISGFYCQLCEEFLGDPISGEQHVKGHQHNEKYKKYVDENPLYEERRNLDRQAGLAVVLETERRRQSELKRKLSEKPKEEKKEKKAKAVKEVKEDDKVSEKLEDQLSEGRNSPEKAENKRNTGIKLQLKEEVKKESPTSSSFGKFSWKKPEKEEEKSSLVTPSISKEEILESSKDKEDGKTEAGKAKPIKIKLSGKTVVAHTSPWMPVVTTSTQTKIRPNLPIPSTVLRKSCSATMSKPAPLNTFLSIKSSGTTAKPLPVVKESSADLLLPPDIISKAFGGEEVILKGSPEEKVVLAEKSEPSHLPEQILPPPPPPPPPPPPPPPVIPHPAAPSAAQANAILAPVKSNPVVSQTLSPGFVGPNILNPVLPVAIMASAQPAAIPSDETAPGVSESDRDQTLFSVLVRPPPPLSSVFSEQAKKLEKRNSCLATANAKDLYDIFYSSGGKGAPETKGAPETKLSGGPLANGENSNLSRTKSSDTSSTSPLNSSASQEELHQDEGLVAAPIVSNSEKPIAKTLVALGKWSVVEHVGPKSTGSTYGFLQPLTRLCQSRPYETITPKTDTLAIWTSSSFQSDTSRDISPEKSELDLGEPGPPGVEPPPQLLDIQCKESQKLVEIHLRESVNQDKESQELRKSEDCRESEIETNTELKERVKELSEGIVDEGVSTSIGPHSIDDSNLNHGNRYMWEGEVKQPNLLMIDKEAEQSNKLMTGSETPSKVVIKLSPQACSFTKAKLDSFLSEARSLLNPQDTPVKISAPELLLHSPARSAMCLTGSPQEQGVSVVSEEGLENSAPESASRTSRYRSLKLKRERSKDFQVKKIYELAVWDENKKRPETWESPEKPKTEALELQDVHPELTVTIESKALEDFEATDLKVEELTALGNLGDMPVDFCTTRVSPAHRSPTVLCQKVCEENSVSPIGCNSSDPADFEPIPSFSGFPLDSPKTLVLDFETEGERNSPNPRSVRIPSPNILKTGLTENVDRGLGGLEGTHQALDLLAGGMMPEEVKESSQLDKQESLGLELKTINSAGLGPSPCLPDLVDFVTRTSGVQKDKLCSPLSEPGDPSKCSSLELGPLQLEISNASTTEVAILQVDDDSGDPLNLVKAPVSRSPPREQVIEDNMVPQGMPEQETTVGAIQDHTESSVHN
UniProt Q6N043: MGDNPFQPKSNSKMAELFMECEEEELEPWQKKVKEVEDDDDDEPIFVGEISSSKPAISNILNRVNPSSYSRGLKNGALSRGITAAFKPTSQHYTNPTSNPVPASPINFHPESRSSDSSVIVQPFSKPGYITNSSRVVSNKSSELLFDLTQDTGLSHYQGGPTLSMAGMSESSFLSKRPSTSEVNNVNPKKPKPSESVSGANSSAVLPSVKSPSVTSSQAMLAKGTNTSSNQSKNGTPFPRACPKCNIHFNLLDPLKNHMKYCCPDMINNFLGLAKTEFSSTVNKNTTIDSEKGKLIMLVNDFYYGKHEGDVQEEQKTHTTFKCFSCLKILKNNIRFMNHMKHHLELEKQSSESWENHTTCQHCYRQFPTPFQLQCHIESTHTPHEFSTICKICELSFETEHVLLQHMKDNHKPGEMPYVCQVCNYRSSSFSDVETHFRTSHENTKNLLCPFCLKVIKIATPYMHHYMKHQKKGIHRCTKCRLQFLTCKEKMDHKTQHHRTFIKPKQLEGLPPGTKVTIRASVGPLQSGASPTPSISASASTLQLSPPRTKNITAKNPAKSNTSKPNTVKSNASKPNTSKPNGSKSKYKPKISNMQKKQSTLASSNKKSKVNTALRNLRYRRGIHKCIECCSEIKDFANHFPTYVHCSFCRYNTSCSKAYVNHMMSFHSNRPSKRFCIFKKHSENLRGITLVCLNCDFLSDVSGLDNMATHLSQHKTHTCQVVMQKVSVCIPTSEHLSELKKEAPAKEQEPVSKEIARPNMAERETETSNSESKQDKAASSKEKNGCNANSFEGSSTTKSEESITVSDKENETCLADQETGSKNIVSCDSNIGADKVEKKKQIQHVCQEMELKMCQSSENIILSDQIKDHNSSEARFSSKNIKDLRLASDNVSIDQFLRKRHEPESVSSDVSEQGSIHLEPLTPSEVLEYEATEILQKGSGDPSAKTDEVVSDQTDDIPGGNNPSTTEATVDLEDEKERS

Assays:
Assay in all cases: log2 fold change, soluble protein after heating vs DMSO (PISA); higher = thermal stabilisation; K562 cells, 10 uM, 30 min; active = over 0.2 and 3.5 SD of the protein, either way, in both replicates (recomputed)
ZNF277 = ZNF277 (UniProt Q9NRM2)
Outline: (§1)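 K562 cells at 2×10^6 cells/mL were treated with 10 μM compound for 30 min. Aliquots were heated for 3 min across 48°C-58°C, pooled, and extracted in PBS with 0.5% NP-40 at 4°C; soluble protein was the supernatant after 21,000xg for 90 min. Soluble protein was quantified by TMTpro 16plex LC-MS/MS with channel sums equalised, and reported as log2 fold change in thermal stability against DMSO controls, with values from duplicates.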

ZNF330 = ZNF330 (UniProt Q9Y3S2)
Outline: as §1

ZNF346 = ZNF346 (UniProt Q9UL40)
Outline: as §1

ZNF384 = ZNF384 (UniProt Q8TF68)
Outline: as §1

ZNF385A = ZNF385A (UniProt Q96PM9)
Outline: as §1

ZNF316 = ZNF316 (UniProt A6NFI3)
Outline: as §1

ZNF414 isoform 2 = ZNF414 isoform 2 (UniProt Q96IQ9)
Outline: as §1

ZNF318 = ZNF318 (UniProt Q5VUA4)
Outline: as §1

ZNF280D = ZNF280D (UniProt Q6N043)
Outline: as §1

| SMILES | log2 fold change (ZNF277) | log2 fold change (ZNF330) | log2 fold change (ZNF346) | log2 fold change (ZNF384) | log2 fold change (ZNF385A) | log2 fold change (ZNF316) | log2 fold change (ZNF414 isoform 2) | log2 fold change (ZNF318) | log2 fold change (ZNF280D) |
| --- | --- | --- | --- | --- | --- | --- | --- | --- | --- |
| C#Cc1cccc(Nc2ncnc3cc(OCCOC)c(OCCOC)cc23)c1 [erlotinib] | inactive: 0.097 | inactive: -0.048 | inactive: -0.04 | inactive: 0.016 | inactive: -0.054 | – | – | – | – |
| CON(C)C(=O)N1N=C(c2cc(F)ccc2F)S[C@@]1(CCCN)c1ccccc1 [filanesib] | – | inactive: 0.335 | inactive: 0.126 | inactive: 0.198 | inactive: 0.19 | inactive: 0.123 | inactive: -0.122 | – | – |
| Nc1ccccc1NC(=O)c1ccc(CNC(=O)OCc2cccnc2)cc1 [entinostat] | – | inactive: 0.005 | inactive: -0.073 | inactive: -0.163 | inactive: 0.038 | inactive: -0.349 | inactive: 0.116 | – | – |
| C[C@H](Nc1ncnc2nc[nH]c12)c1cc2cccc(Cl)c2c(=O)n1-c1ccccc1 [duvelisib] | – | inactive: -0.025 | inactive: -0.036 | – | inactive: -0.071 | – | – | inactive: 0.097 | – |
| Cc1cc(Nc2cc(N3CCN(C)CC3)nc(Sc3ccc(NC(=O)C4CC4)cc3)n2)n[nH]1 [tozasertib] | – | inactive: 0.015 | inactive: 0.017 | inactive: 0.3 | inactive: -0.022 | – | – | – | – |
| COC(=O)[C@H](CCSC)NC(=O)c1ccc(NC[C@@H](N)CS)cc1-c1ccccc1 | inactive: -0.047 | inactive: 0.035 | inactive: 0.023 | inactive: -0.019 | inactive: -0.085 | – | inactive: 0.291 | – | – |
| C[C@@H]1COCCN1c1cc(C2(S(C)(=O)=O)CC2)nc(-c2cccc3[nH]ccc23)n1 | inactive: -0.566 | inactive: -0.064 | inactive: -0.002 | – | inactive: -0.288 | – | – | – | – |
| CC[C@H](C)[C@H](NC(=O)[C@H]([C@@H](C)CC)N(C)C(C)=O)C(=O)N[C@H](C(=O)N[C@@H](CC(C)C)C(=O)[C@@]1(C)CO1)[C@@H](C)O [epoxomicin] | inactive: -0.06 | inactive: 0.089 | inactive: -0.005 | – | inactive: -0.006 | – | – | – | – |
| CCCS(=O)(=O)Nc1ccc(F)c(C(=O)c2c[nH]c3ncc(-c4ccc(Cl)cc4)cc23)c1F [vemurafenib] | inactive: 0.063 | inactive: -0.023 | inactive: -0.015 | inactive: 0.055 | inactive: -0.066 | – | inactive: -0.111 | – | – |
| NCC(=O)Nc1ccc(-n2nc(C(F)(F)F)cc2-c2ccc3c(ccc4ccccc43)c2)cc1 | inactive: -0.148 | inactive: 0 | inactive: 0.105 | inactive: 0.054 | inactive: -0.079 | – | inactive: 0.063 | – | – |
| CN(CCOc1ccc(C[C@@H]2SC(=O)NC2=O)cc1)c1ccccn1 (racemic) [rosiglitazone] | – | inactive: 0.002 | inactive: 0.008 | inactive: -0.034 | inactive: 0.142 | inactive: -0.044 | inactive: 0.059 | – | – |
| CC1=C(C(=O)Nc2cc3cn[nH]c3cc2F)C(c2ccc(C(F)(F)F)cc2)CC(=O)N1 (stereo not given) | – | inactive: 0.052 | inactive: -0.009 | – | inactive: 0.005 | – | – | – | inactive: 0.12 |
| CCCCN(Cc1ccc(C(=O)NO)cc1)C(=O)Nc1ccccc1 [Nexturastat A] | inactive: 0.276 | inactive: 0.119 | inactive: 0.037 | – | inactive: 0 | – | – | – | – |
| CS(=O)(=O)c1ccc(-c2cnc(N)c(C(=O)Nc3ccccc3)n2)cc1 | – | inactive: -0.068 | inactive: -0.089 | inactive: -0.074 | inactive: -0.02 | inactive: 0.08 | inactive: 0.015 | – | – |
| CN1CCN(c2nc(C3=C(c4c[nH]c5ccccc45)C(=O)NC3=O)c3ccccc3n2)CC1 [sotrastaurin] | – | inactive: -0.143 | inactive: 0.037 | inactive: 0.059 | inactive: -0.167 | inactive: -0.068 | inactive: 0.14 | – | – |
| CS(=O)(=O)N1CCN(Cc2cc3nc(-c4cccc5[nH]ncc45)nc(N4CCOCC4)c3s2)CC1 [pictilisib] | inactive: -0.249 | inactive: 0.02 | inactive: -0.045 | inactive: -0.043 | inactive: 0.193 | – | – | – | – |

| SMILES | log2 fold change (ZNF277) | log2 fold change (ZNF330) | log2 fold change (ZNF346) | log2 fold change (ZNF384) | log2 fold change (ZNF385A) | log2 fold change (ZNF316) | log2 fold change (ZNF414 isoform 2) | log2 fold change (ZNF318) | log2 fold change (ZNF280D) |
| --- | --- | --- | --- | --- | --- | --- | --- | --- | --- |
| CCn1c(C(=O)N(C2CC2)C2CC2)cc2c3c(ncn3C)c(Nc3cc(C)n(C)n3)nc21 | – | inactive: 0.011 | inactive: -0.052 | inactive: -0.064 | inactive: -0.052 | – | – | – | – |
| NC(=O)Nc1cc(-c2cccc(F)c2)sc1C(=O)N[C@H]1CCCNC1 | – | inactive: -0.038 | inactive: -0.052 | inactive: 0.265 | inactive: -0.08 | inactive: -0.262 | inactive: 0.096 | – | – |
| Fc1ccc(Cl)cc1-c1nc(Nc2ccncc2)c2nccnc2n1 | active: -0.765 | inactive: -0.021 | inactive: 0.052 | – | inactive: -0.064 | – | – | – | – |
| CCCS(=O)(=O)Nc1ccc(F)c(C(=O)c2c[nH]c3ncc(Cl)cc23)c1F | inactive: 0.028 | inactive: -0.027 | inactive: 0.054 | – | inactive: 0.008 | – | inactive: -0.053 | – | – |
| Cc1ccc(NC(=O)c2cccc(C(C)(C)C#N)c2)cc1Nc1ccc2ncn(C)c(=O)c2c1 | – | inactive: -0.014 | inactive: 0.017 | inactive: -0.203 | inactive: 0.125 | inactive: 0.143 | inactive: -0.049 | – | – |
| CN(C)CC(=O)Nc1ccc2[nH]c(=O)c3ccccc3c2c1 | inactive: -0.003 | inactive: -0.043 | inactive: -0.024 | inactive: -0.129 | inactive: -0.025 | – | inactive: -0.024 | – | – |
| CNC(=O)c1ccc(Nc2ncc(C(F)(F)F)c(NCc3nccnc3N(C)S(C)(=O)=O)n2)cc1 [defactinib] | inactive: 0.161 | inactive: 0.023 | inactive: 0.156 | inactive: 0.18 | inactive: 0.06 | – | inactive: -0.176 | – | – |
| Cc1ccc(Sc2cncc3sc(C(N)=O)cc23)cc1 | inactive: -0.032 | inactive: -0.06 | inactive: -0.052 | – | inactive: -0.053 | – | inactive: -0.18 | – | – |
| CC[C@@H]1C(=O)N(C)c2cnc(Nc3ccc(C(=O)N[C@H]4CC[C@H](N5CCN(CC6CC6)CC5)CC4)cc3OC)nc2N1C(C)C [volasertib] | inactive: -0.017 | inactive: -0.002 | inactive: 0.118 | – | inactive: 0.187 | – | inactive: -0.075 | – | – |
| O=C1NC(=O)C(c2cnc3ccccn23)=C1c1cn2c3c(cc(F)cc13)CN(C(=O)N1CCCCC1)CC2 | inactive: 0.124 | inactive: -0.046 | inactive: 0.142 | – | inactive: 0.164 | – | – | – | – |
| CS(=O)(=O)CCNCc1ccc(-c2ccc3ncnc(Nc4ccc(OCc5cccc(F)c5)c(Cl)c4)c3c2)o1 [lapatinib] | inactive: 0 | inactive: -0.027 | inactive: 0.107 | – | inactive: -0.086 | – | inactive: 0.117 | – | – |
| c1cn2cc(-c3ccc4cn[nH]c4c3)nc(Nc3ccc(N4CCOCC4)cc3)c2n1 [entospletinib] | – | inactive: 0.02 | inactive: 0.068 | inactive: 0.198 | inactive: 0.033 | inactive: -0.644 | inactive: -0.026 | – | – |
| COc1cc2nc(-c3cc(F)ccc3O)nc(N[C@@H]3CNC[C@H]3C(C)(C)O)c2cc1OC | inactive: 0.268 | inactive: 0.014 | inactive: 0.04 | – | inactive: -0.043 | – | inactive: 0.01 | – | – |
| CN1CC[C@H](c2c(O)cc(O)c3c(=O)cc(-c4ccccc4Cl)oc23)[C@H](O)C1 [alvocidib] | – | inactive: 0.005 | inactive: 0.199 | inactive: 0.165 | inactive: 0.135 | inactive: -0.139 | inactive: 0.013 | inactive: 0.126 | – |
| CC(C)(O)CC(=O)NCCn1ccc2ncnc(Nc3ccc(Oc4cccc(C(F)(F)F)c4)c(Cl)c3)c21 | inactive: -0.002 | inactive: -0.015 | inactive: -0.149 | – | inactive: -0.006 | – | – | – | – |
| Cn1cncc1[C@@](N)(c1ccc(Cl)cc1)c1ccc2c(c1)c(-c1cccc(Cl)c1)cc(=O)n2C [tipifarnib] | inactive: 0.044 | inactive: -0.027 | inactive: 0.013 | – | inactive: 0.07 | – | inactive: -0.081 | – | – |

Exported with tabs: entries from further up.
SMILES	log2 fold change (ZNF277)	log2 fold change (ZNF330)	log2 fold change (ZNF346)	log2 fold change (ZNF384)	log2 fold change (ZNF385A)	log2 fold change (ZNF316)	log2 fold change (ZNF414 isoform 2)	log2 fold change (ZNF318)	log2 fold change (ZNF280D)
NC(=O)Nc1cc(-c2cccc(F)c2)sc1C(=O)N[C@H]1CCCNC1	–	inactive: -0.038	inactive: -0.052	inactive: 0.265	inactive: -0.08	inactive: -0.262	inactive: 0.096	–	–
CN1CC[C@H](c2c(O)cc(O)c3c(=O)cc(-c4ccccc4Cl)oc23)[C@H](O)C1 [alvocidib]	–	inactive: 0.005	inactive: 0.199	inactive: 0.165	inactive: 0.135	inactive: -0.139	inactive: 0.013	inactive: 0.126	–
